The list shows a part of the results.
biological target: T1, OsSMF1 (Oryza sativa, UniProt Q6ZLB0 1-436); experiment: protein-binding microarray (RPBM); PBS, 2% BSA, 51.3 ng/ul salmon testes DNA, 50 uM zinc acetate, 200 nM TF, 25 C, 1 h; high values mean tight binding; details: protein: recombinant; tags: N-terminal polyhistidine and DsRed monomer fusion (pET32a); chain copies: 2; label: CyDye5-dUTP incorporated in the synthesized complementary strand; 3' TTTTT single-stranded linker to array surface; dsDNA, one strand shown
T1 sequence: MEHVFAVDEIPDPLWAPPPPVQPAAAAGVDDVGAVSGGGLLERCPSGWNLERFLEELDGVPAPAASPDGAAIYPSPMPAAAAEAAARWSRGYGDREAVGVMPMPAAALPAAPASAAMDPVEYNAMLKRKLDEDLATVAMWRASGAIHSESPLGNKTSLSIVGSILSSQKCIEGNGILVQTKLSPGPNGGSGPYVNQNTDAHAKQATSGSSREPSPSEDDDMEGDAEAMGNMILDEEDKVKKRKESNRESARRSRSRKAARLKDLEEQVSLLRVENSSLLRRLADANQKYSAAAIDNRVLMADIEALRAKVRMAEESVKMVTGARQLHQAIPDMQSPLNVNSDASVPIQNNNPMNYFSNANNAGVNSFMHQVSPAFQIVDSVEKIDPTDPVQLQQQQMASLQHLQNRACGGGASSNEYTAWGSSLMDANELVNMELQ
In short: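 Per-feature fluorescence intensity (arbitrary units), read on an Axon 4000B scanner, is the binding signal. Transcription factors carrying an N-terminal polyhistidine tag and DsRed fusion were expressed in E. coli BL21-CodonPlus and purified on Ni–NTA. A custom Agilent array, made double-stranded by primer extension with Cy5-dUTP and blocked with 2% BSA, was incubated with 200 nM protein in PBS, 2% BSA, salmon testes DNA and 50 µM zinc acetate at 25 °C for 1 h and then washed.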

Sequence	binding signal
GAGAGAGAGAGGGTGTTCGTACTGGTTGCTCACCGGCGAGCGGAGTCACCTAGTGCAG	3230 fluorescence intensity (a.u.)
CCTCAGTAGCGAAATCTCTGCCACACCATGGTCTTTTGACCGGAGTCACCTAGTGCAG	3570 fluorescence intensity (a.u.)
GTGCGAAATCCCATGGCGCTGAAATTAGACACCTCAGCGCCGGAGTCACCTAGTGCAG	4160 fluorescence intensity (a.u.)
GGATCGACCCTATCCGGTACCTTCAGAGGCCGGCCGTAGGCGGAGTCACCTAGTGCAG	3250 fluorescence intensity (a.u.)
TGCCGCCGCCGTCGTCACCGTCGCCGCCTCCGTGCTCATGCGGAGTCACCTAGTGCAG	6030 fluorescence intensity (a.u.)
TGGTGTTTACTGTTACTATTGTTACCATGGATCCACCACCCGGAGTCACCTAGTGCAG	3590 fluorescence intensity (a.u.)
GTAGCCACTGATTTCTAACGTGCTGTCGTTTGCAATGACGCGGAGTCACCTAGTGCAG	4140 fluorescence intensity (a.u.)
AGTACATTTATTTTGGGCTATTTATTTGTACACGTCAAGACGGAGTCACCTAGTGCAG	9600 fluorescence intensity (a.u.)
AACTCACCCAGTTAATCCAGTCATCAGATAGGAGCAAGATCGGAGTCACCTAGTGCAG	3610 fluorescence intensity (a.u.)
TTTTATGTTATTGAGAGGTACACAGTCACTCTTGATACATCGGAGTCACCTAGTGCAG	3930 fluorescence intensity (a.u.)
TTGCAACACCGAAAAGGCCACGTACATGCACGTGATGAGCCGGAGTCACCTAGTGCAG	5610 fluorescence intensity (a.u.)
CAAGAAATAACCCAAGATGGTTTTAAATAGAAACCGCAAACGGAGTCACCTAGTGCAG	3210 fluorescence intensity (a.u.)
GTGGTGATAGGTGATGTACACGGCGCCGGGGAGGCGATGACGGAGTCACCTAGTGCAG	3860 fluorescence intensity (a.u.)
CCTCCGCATCACCTGCCGCATCAGCCGTGGTGTGGGCTAGCGGAGTCACCTAGTGCAG	3720 fluorescence intensity (a.u.)
CTACTACTACTAACCTGACACAATTTGGATTGACCGATTGCGGAGTCACCTAGTGCAG	3820 fluorescence intensity (a.u.)
ACGCGAGCATACTTTGTGCACATGGCATGCCATGTAGGATCGGAGTCACCTAGTGCAG	4400 fluorescence intensity (a.u.)
GGAATACCATGTGTAGGCCCAGGCGCCCAGCCTATTAACGCGGAGTCACCTAGTGCAG	3170 fluorescence intensity (a.u.)
CGTTACCACATACGTGCATTTTGCGTGTGTGTATGTATATCGGAGTCACCTAGTGCAG	5480 fluorescence intensity (a.u.)
CTTCTTCGTGATGCACCTTTTGCTTTACAGCGCTAGCAATCGGAGTCACCTAGTGCAG	3700 fluorescence intensity (a.u.)
ACACCATGTCACATCCAACTAGGCCCTCCTCCTCTTTGATCGGAGTCACCTAGTGCAG	4410 fluorescence intensity (a.u.)
TCACCACCTCACTCCACTAACCAGAGAGAGAACGCAGCTACGGAGTCACCTAGTGCAG	21000 fluorescence intensity (a.u.)

Five records drawn at random from those above:
Sequence	binding signal
AACTCACCCAGTTAATCCAGTCATCAGATAGGAGCAAGATCGGAGTCACCTAGTGCAG	3610 fluorescence intensity (a.u.)
TTTTATGTTATTGAGAGGTACACAGTCACTCTTGATACATCGGAGTCACCTAGTGCAG	3930 fluorescence intensity (a.u.)
ACACCATGTCACATCCAACTAGGCCCTCCTCCTCTTTGATCGGAGTCACCTAGTGCAG	4410 fluorescence intensity (a.u.)
GGATCGACCCTATCCGGTACCTTCAGAGGCCGGCCGTAGGCGGAGTCACCTAGTGCAG	3250 fluorescence intensity (a.u.)
GTAGCCACTGATTTCTAACGTGCTGTCGTTTGCAATGACGCGGAGTCACCTAGTGCAG	4140 fluorescence intensity (a.u.)

More entries:

Sequence	binding signal
TAGCATTAAGAAAGGACTCGCTGTACGGTCGTAGATAAGTCGGAGTCACCTAGTGCAG	3260 fluorescence intensity (a.u.)
ATCCTGCCGGAGTTGGACCTGGATGCGTTGCTGTCGGCGCCGGAGTCACCTAGTGCAG	3370 fluorescence intensity (a.u.)
TTTTGCTTCCGGTGATGTGGTGGTGCTCGGGCCTGTTATTCGGAGTCACCTAGTGCAG	4750 fluorescence intensity (a.u.)
AATCAGATGATCGGTGCTGCAGCCATCATTGAAGCCTGTGCGGAGTCACCTAGTGCAG	3400 fluorescence intensity (a.u.)
CTCTCCTGGGCATGACTCGGGTGAGGCCCAACGGTTCGGGCGGAGTCACCTAGTGCAG	3740 fluorescence intensity (a.u.)
TTTGGAGACGACACCAACGCGAGATCGCCACGTCGTGCCGCGGAGTCACCTAGTGCAG	6640 fluorescence intensity (a.u.)
ACACACACTCCCTCTCTCTTTCTGTACAGTGTCATTCCTTCGGAGTCACCTAGTGCAG	17700 fluorescence intensity (a.u.)
TGGTATTTTCCTGCTTTCCTACACTTCCACATCACCACAACGGAGTCACCTAGTGCAG	8720 fluorescence intensity (a.u.)
TTACCTTTTGGGGCTGTTCAAATTGATGTCATTTCAAATCCGGAGTCACCTAGTGCAG	15300 fluorescence intensity (a.u.)
TTCTAACTCACACGTGTACTTTTATATTTAATATATTTATCGGAGTCACCTAGTGCAG	7220 fluorescence intensity (a.u.)
GCTTTTGTGTTGGCCCGATTGAGATGTGTCATCCGTGACGCGGAGTCACCTAGTGCAG	6190 fluorescence intensity (a.u.)
AGAGGGTATACCTAACCCGTAACCCTGACAATTTCCTTAGCGGAGTCACCTAGTGCAG	7360 fluorescence intensity (a.u.)
GTGAGGTACCAAAATTTGTTGCTAGCACCTTCAATTTTACCGGAGTCACCTAGTGCAG	3450 fluorescence intensity (a.u.)
TCCCAAAATCGGAAACCCGTACTATCTCCGTCACACCCCTCGGAGTCACCTAGTGCAG	4120 fluorescence intensity (a.u.)
CCCCTACCCCACCCACTGACACATCCTCCCCACGCTACGCCGGAGTCACCTAGTGCAG	6190 fluorescence intensity (a.u.)
CCCGCTGCCACCTCCGAGTCCACTTCTCGCCACCCTCTGCCGGAGTCACCTAGTGCAG	4400 fluorescence intensity (a.u.)
AAACCATGTCTGACAATTACGCACGTGTGATTACACTTTCCGGAGTCACCTAGTGCAG	3480 fluorescence intensity (a.u.)
CATTAATGCTCCATACATGTGTTAAGCATCTGATGTGTTACGGAGTCACCTAGTGCAG	4790 fluorescence intensity (a.u.)
GACAGCAGCAGAGGAGTTCGCAAGACTTCTGACAGGTGGGCGGAGTCACCTAGTGCAG	3180 fluorescence intensity (a.u.)
ATATGTTGAAGTGTCGAAACGGCTTTCGCTCCCACTAGGTCGGAGTCACCTAGTGCAG	29400 fluorescence intensity (a.u.)
GTGACAGGTGCCACCTGTTATGAAGACCTACGAACAGTGGCGGAGTCACCTAGTGCAG	3270 fluorescence intensity (a.u.)

Sequence	binding signal
CCGGTCATGTTTTCAGAAATGGAATCGGCCGGTCAGATTTCGGAGTCACCTAGTGCAG	3360 fluorescence intensity (a.u.)
ACGGGCAGTCGGGCACGACCGAGACCCTCGCGCCCACGCACGGAGTCACCTAGTGCAG	26500 fluorescence intensity (a.u.)
TACGTTACCCTGCCGGATGATTGCCCTACCCTCATCTCATCGGAGTCACCTAGTGCAG	25400 fluorescence intensity (a.u.)
ATACTATTATATCGGGCCTCCACGGAGAGCGGGGACGGGGCGGAGTCACCTAGTGCAG	3380 fluorescence intensity (a.u.)
GCAAGTCCAACTCCAACTCAGCGCCTCCGCTCCTCCTCACCGGAGTCACCTAGTGCAG	6960 fluorescence intensity (a.u.)
ACCCATTTTCAGTGGCAGGGTTATTGACACCACACTCACACGGAGTCACCTAGTGCAG	3140 fluorescence intensity (a.u.)
TTGACTTGTACATAGTAATGATTGGCAGGTAATGACGTACCGGAGTCACCTAGTGCAG	3280 fluorescence intensity (a.u.)
AGATCCAAACACGTCACAATATACCATCACTGCGGCCGCCCGGAGTCACCTAGTGCAG	7500 fluorescence intensity (a.u.)
CGCACCGACCGGTCCACGTGGAACGGACGGCGAGGATGAACGGAGTCACCTAGTGCAG	6560 fluorescence intensity (a.u.)
AATATACAACACTATATTATTAATGCAGTCCAATCGATATCGGAGTCACCTAGTGCAG	37000 fluorescence intensity (a.u.)
GATAAAATGTGTACAATGTCAGCATCACATGGCTCCCACACGGAGTCACCTAGTGCAG	4330 fluorescence intensity (a.u.)
GTTGGAAAGGATGACGAGAATTGCGTGTCACCCTCTTCCCCGGAGTCACCTAGTGCAG	9160 fluorescence intensity (a.u.)
ACTTACTGATAAGCACGCCAGACCACCTCACTGGCTCACTCGGAGTCACCTAGTGCAG	3600 fluorescence intensity (a.u.)
TCTTTCTTTCCAGCCACGACAGGCAAACCTACCCCAACGCCGGAGTCACCTAGTGCAG	3190 fluorescence intensity (a.u.)
GTACGTCGCACTGGGGAAGCTGCTCACGTGGACGGAATGGCGGAGTCACCTAGTGCAG	7020 fluorescence intensity (a.u.)
CCCTGTTTGAAGCAGTGACGCAATGGTGTATAATTTGGGCCGGAGTCACCTAGTGCAG	4830 fluorescence intensity (a.u.)
GGAGAGGGGTGATGAGTGATGACGTGATCCCATTGTATTTCGGAGTCACCTAGTGCAG	4970 fluorescence intensity (a.u.)
ACACCATAACGCCTCGTCGGCATGATGTTAGCGCCTTCTTCGGAGTCACCTAGTGCAG	4080 fluorescence intensity (a.u.)
CCAGTCTATTCTTATCCACGTTGCTGGTCGACTTAGGACCCGGAGTCACCTAGTGCAG	4000 fluorescence intensity (a.u.)
GAAGGCAGGGTCGAGCGGTCAGTGGTGCGCATCTCCGACACGGAGTCACCTAGTGCAG	3250 fluorescence intensity (a.u.)
CGACATGTCGTCCCCACCGCCGCAGCGCCCGCCAGCTACGCGGAGTCACCTAGTGCAG	31900 fluorescence intensity (a.u.)

A section from further up, for reference:
Sequence	binding signal
TCTTTCTTTCCAGCCACGACAGGCAAACCTACCCCAACGCCGGAGTCACCTAGTGCAG	3190 fluorescence intensity (a.u.)
GTACGTCGCACTGGGGAAGCTGCTCACGTGGACGGAATGGCGGAGTCACCTAGTGCAG	7020 fluorescence intensity (a.u.)

Next part:

Sequence	binding signal
TACTCCCCTCGTTCTCACGACACATCACCAATCTGTACGACGGAGTCACCTAGTGCAG	6850 fluorescence intensity (a.u.)
CTACCCCTCCTTATCCAGTCCTCCACGTCAACAAAAGAAACGGAGTCACCTAGTGCAG	6350 fluorescence intensity (a.u.)
CGGTCCCCAGTCCCCACGCGGGCGCCCTCACGTGGAACGCCGGAGTCACCTAGTGCAG	4860 fluorescence intensity (a.u.)
GAGCTCCATCTGCTTGCACTCGTGTGATCCTCTCCTTGGCCGGAGTCACCTAGTGCAG	3300 fluorescence intensity (a.u.)
ATTCAACTTGTACATCTCGTAACGAACAGTAACAAACAGCCGGAGTCACCTAGTGCAG	3260 fluorescence intensity (a.u.)
ATGCATAGCGAGAGCCAAGTGGCAATCCTCTAGTACACTCCGGAGTCACCTAGTGCAG	3450 fluorescence intensity (a.u.)
CCGTTCGCCACGTCCATCCGTTTTCTGTGCCATAGGCAGGCGGAGTCACCTAGTGCAG	7170 fluorescence intensity (a.u.)
TTGTGTGGTAACCGGGCAAGCGACGTGGACATGGAATCTGCGGAGTCACCTAGTGCAG	6390 fluorescence intensity (a.u.)
TTCGGTACACATCACAGAATAATGTATACAACTAAAAGTACGGAGTCACCTAGTGCAG	3410 fluorescence intensity (a.u.)
CCGACGCTGCAGGCGTCAAGGACGTGGACGCGAAGTGGATCGGAGTCACCTAGTGCAG	3680 fluorescence intensity (a.u.)
AAATGGAGGTGGTATTTAATTTATAAGCTACTCCTCCGTACGGAGTCACCTAGTGCAG	16900 fluorescence intensity (a.u.)
AAACGCCAAAGGATCGGTGAAAGGTTTGCCACGTCATCGACGGAGTCACCTAGTGCAG	32000 fluorescence intensity (a.u.)
AGATAAGGATCAGCCAACTAATTTGGCCTTGACTCACGCCCGGAGTCACCTAGTGCAG	4640 fluorescence intensity (a.u.)
GTGAAACGTGGAAAGGCTAACGGTGATTCACGCCATCCTTCGGAGTCACCTAGTGCAG	3780 fluorescence intensity (a.u.)
TCGACTCACTCAATCCAGTCGTCACCCCAGCTCACACGCACGGAGTCACCTAGTGCAG	3650 fluorescence intensity (a.u.)
AGATTGAAACTTATCTCCTTGTCGCCTCGTCATGGTGGGGCGGAGTCACCTAGTGCAG	5820 fluorescence intensity (a.u.)
GTAGCCGTTGAGGCTACGAACTCCATGTGTTACGTGTAGCCGGAGTCACCTAGTGCAG	5900 fluorescence intensity (a.u.)
CTATTTGCCACCTCTATCTCCACATGTGTCTATGACATGTCGGAGTCACCTAGTGCAG	3730 fluorescence intensity (a.u.)
ATAAATGCATTACATCACTCTTTCCTGCCTTATTAGTATGCGGAGTCACCTAGTGCAG	6050 fluorescence intensity (a.u.)
CACTAAACGGCCAAAATCTTCCATCGTATAGTTACGTCACCGGAGTCACCTAGTGCAG	4380 fluorescence intensity (a.u.)
ATCTCTGGTTTCACCGGTGACGACGCGACAAGGCGGAACACGGAGTCACCTAGTGCAG	3800 fluorescence intensity (a.u.)
